This note sets out measurements from article PMC5793161.

These are yes or no findings as the source states them, for the method shown. Some entries that bind do so weakly or less than the wild type.

Experiment in all cases: two-hybrid; Matchmaker gold yeast two-hybrid system (Clontech), pGADT7 and pGBKT7 fusions; diploid yeast in five-fold dilutions on quadruple drop-out (-ade, -his, -leu, -trp) selection medium against double drop-out control; ADE2 and HIS3 reporters
In assay [1] the target is T1, Arabidopsis thaliana Rad4/XPC homologue (AtRAD4) (Arabidopsis thaliana) (UniProt Q8W489).
T1 sequence: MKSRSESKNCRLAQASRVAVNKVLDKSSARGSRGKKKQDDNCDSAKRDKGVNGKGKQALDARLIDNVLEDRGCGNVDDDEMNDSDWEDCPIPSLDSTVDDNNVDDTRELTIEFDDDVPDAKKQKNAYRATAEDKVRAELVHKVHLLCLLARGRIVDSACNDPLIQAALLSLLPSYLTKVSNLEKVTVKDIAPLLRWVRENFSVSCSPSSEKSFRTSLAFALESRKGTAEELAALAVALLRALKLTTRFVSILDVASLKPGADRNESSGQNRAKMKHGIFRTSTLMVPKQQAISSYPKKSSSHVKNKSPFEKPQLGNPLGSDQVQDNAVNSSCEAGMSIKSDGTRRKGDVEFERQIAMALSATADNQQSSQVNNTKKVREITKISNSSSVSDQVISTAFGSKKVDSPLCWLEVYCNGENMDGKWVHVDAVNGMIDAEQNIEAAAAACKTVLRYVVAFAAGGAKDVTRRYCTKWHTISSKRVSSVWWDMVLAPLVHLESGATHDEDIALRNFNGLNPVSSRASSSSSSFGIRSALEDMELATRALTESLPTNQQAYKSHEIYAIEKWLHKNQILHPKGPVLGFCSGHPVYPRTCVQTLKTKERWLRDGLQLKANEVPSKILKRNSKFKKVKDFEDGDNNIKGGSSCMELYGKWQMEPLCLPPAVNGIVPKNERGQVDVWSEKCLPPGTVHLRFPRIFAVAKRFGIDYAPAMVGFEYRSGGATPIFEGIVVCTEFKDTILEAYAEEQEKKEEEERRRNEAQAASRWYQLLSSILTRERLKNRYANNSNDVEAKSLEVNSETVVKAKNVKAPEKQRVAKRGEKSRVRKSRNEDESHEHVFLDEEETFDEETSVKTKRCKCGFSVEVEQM

For assay [2], the target named is T2, Arabidopsis RAD23B (Arabidopsis thaliana) (UniProt Q84L33).
T2 sequence: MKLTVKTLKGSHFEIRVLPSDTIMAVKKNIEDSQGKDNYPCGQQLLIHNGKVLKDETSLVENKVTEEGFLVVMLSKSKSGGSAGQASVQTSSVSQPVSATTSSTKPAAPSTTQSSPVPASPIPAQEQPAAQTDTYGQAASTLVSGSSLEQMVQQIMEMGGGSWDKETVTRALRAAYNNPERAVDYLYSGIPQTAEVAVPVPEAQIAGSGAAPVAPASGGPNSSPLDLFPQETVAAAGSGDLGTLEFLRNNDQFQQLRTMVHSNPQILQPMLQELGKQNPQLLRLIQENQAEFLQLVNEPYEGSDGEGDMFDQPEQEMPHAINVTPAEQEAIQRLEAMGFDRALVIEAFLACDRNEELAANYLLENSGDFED

In assay [3] the target is T3, RAD4N pGBKT7 (1-371/866 aa) (Arabidopsis thaliana) (UniProt Q8W489).
T3 sequence: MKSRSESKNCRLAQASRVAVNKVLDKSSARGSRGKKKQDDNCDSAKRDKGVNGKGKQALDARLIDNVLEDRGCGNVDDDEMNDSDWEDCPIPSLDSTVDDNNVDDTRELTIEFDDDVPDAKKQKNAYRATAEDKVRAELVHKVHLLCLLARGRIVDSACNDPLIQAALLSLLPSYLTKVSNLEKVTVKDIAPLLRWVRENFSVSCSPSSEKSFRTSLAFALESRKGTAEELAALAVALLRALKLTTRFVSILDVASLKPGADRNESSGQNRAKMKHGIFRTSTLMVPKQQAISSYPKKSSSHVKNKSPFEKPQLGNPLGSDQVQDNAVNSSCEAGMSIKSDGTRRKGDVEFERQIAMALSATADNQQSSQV

B1: Arabidopsis DDB2 (protein, UniProt Q6NQ88 1-557)
chain: MSSTRSRRKRDPEIVIARDTDSELSSSEEEEEEEDNYPFSESEEEDEAVKNGGKIELEKNKAKGKAPITVKLIKKVCKVCKQPGHEAGFKGATYIDCPMKPCFLCKMPGHTTMSCPHRVVTDHGILPTSHRNTKNPIDFVFKRQLQPRIPPIKPKYVIPDQVHCAVIRYHSRRVTCLEFHPTKNNILLSGDKKGQIGVWDFGKVYEKNVYGNIHSVQVNNMRFSPTNDDMVYSASSDGTIGYTDLETGTSSTLLNLNPDGWQGANSWKMLYGMDINSEKGVVLAADNFGFLHMIDHRTNNSTGEPILIHKQGSKVCGLDCNPVQPELLLSCGNDHFARIWDMRKLQPKASLHDLAHKRVVNSAYFSPSSGTKILTTCQDNRIRIWDSIFGNLDLPSREIVHSNDFNRHLTPFKAEWDPKDTSESLIVIGRYISENYNGTALHPIDFIDASNGQLVAEVMDPNITTITPVNKLHPRDDVLASGSSRSLFIWRPQDNTEMVEEKKDKKIIICYGDSKKKGKKQKRGSDDEDDEDDIFSSKGKNIKVNKYQAKTTKKTKT
For the molecule B1, the binding result in assay [1] is recorded as “no binding”.

B2: Arabidopsis RAD23B (protein, UniProt Q84L33 1-371)
chain: T2 sequence
Regarding B2, the binding entry in assay [1] is given as “binds”.

B3: RAD4N pGADT7 (1-368/866 aa) (domain or fragment, UniProt Q8W489 1-368)
chain: MKSRSESKNCRLAQASRVAVNKVLDKSSARGSRGKKKQDDNCDSAKRDKGVNGKGKQALDARLIDNVLEDRGCGNVDDDEMNDSDWEDCPIPSLDSTVDDNNVDDTRELTIEFDDDVPDAKKQKNAYRATAEDKVRAELVHKVHLLCLLARGRIVDSACNDPLIQAALLSLLPSYLTKVSNLEKVTVKDIAPLLRWVRENFSVSCSPSSEKSFRTSLAFALESRKGTAEELAALAVALLRALKLTTRFVSILDVASLKPGADRNESSGQNRAKMKHGIFRTSTLMVPKQQAISSYPKKSSSHVKNKSPFEKPQLGNPLGSDQVQDNAVNSSCEAGMSIKSDGTRRKGDVEFERQIAMALSATADNQQS
Consider B3, for which the binding entry in assay [2] is “binds”.

B4: Arabidopsis thaliana Rad4/XPC homologue (AtRAD4) (protein, UniProt Q8W489 1-865)
chain: T1 sequence
Consider B4, for which the binding result in assay [1] was “no binding”.

B5: HEMERA (HMR) (protein, UniProt F4IHY7 1-527)
chain: MASISTTTWLYRGQVCTDSGKSSNCIVQRRVKCGFPLKTLHAGITSRDRSLRHCIKCKKEDGDGDVSEGSKKSEEGFEYVTVERHPYHSYMDSTSGKLEPASGARASIPGEDYWPEGTSSRVRAARAPQPAGESSSFPSYGKNPGSRRKKNRKATEENVTVETNDEVSDSEDSSEEEENDSSDGFVTYKNEFEREEEETGFELDKKLGRPHPFIDPTKKKQIEKTLTSDESWWNWRKPEKEQWSRWQRRRPDVETVFLKAMAETGQVKLYGEEPTLTETSLYRARRHLFKEERLQAERERLAKEGPMAFYSEWVKAWKRDTSREAVQKHFEETGEDENTQLIEMFSHQTDREYRIMMGTDIRIKRDPLAMRMREDQIKQIWGGDPVYPTINYIQDPNAVMDFRGPDFHEPTPNMLSYLKENGKVISREMHEALLTKEKTEQLEVPDMDDAMAQAVDIGENDDDEDDADVEKDDEKVPRNWSVLKETPELRTAKPKPKKEGRMSLDEAVDDAENLTDFLMDFEEETDP
As for B5, the binding entry in assay [1] and in assay [3] was “binds” throughout.
